PubChem BioAssay AID504791, Drosophila RNAi Screening Center, 2011

Assay: 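Factors in Argonaute-based small RNA production and activity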 (primary screen)
Cell system: Drosophila S2-derived reporter cells
Reagent: long dsRNA against Drosophila genes, about 150-250 ng dsRNA per well (siRNA assay); about 80-120 ng (miRNA assay)
Time to read-out: about 5 days (siRNA assay); about 4 days (miRNA assay)
Treatment: copper sulfate induction of reporters: 25 µM (siRNA assay); 200 mM stated (miRNA assay), 1-2 days before reading
Read-out: 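Per-well ratio of Renilla over firefly light, expressed relative to that plate's average ratio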
Rule for the call: 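a well was a first-pass pick when its plate-scaled ratio rose above 1.5 (siRNA assay) or 1.6 (miRNA assay), or dropped below 0.6; a gene counted only if two separate dsRNAs agreed on retest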
The screen tested about 23,000 reagents; shown is a random part of those with a known target gene and a result. Over the whole deposit, 199 (0.86%) were called active. 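Plate-scaled ratios behind the calls are not deposited; printed light signals are raw; many rows marked increased or decreased are still called inactive.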 Unmarked entries are inactive. The record does not give: the direction of the score.

predicted target	amplicon	stable siRNA reporter change	miRNA reporter change	stable assay Renilla, run 1 (luminescence)	stable assay firefly, run 1 (luminescence)
Theg (Testicular haploid expressed gene)	DRSC16023			11435	5.47e5
CG32428	DRSC11697			7972	2.93e5
CG32428	DRSC11768			7072	4.15e5
sima (similar)	DRSC17055	reporter ratio raised past the hit cutoff		5647	2.14e5
sima (similar)	DRSC23203			2959	2.02e5
Cyt-c1 (Cytochrome c1)	DRSC10447			7971	6.23e5
flr (flare)	DRSC09787			8272	4.29e5
Gr47a (Gustatory receptor 47a)	DRSC06221			6667	3.56e5
CG14646	DRSC12232			3864	3.12e5
CG14646	DRSC21316			9201	5.49e5
wgn (wengen)	DRSC19998			5760	5.59e5
vanin-like	DRSC17440			4743	3.17e5
CG7142	DRSC16204			6670	2.63e5
Txl (Thioredoxin-like)	DRSC11310			7618	4.16e5
Ir20a (Ionotropic receptor 20a)	DRSC20506			5148	3.35e5
Cyp6a22 (Cytochrome P450 6a22)	DRSC07382			9006	5.31e5
CG10984	DRSC09817			7724	3.45e5
CG10984	DRSC28387		reporter ratio lowered past the hit cutoff		
RpS17 (Ribosomal protein S17)	DRSC11271			6399	4.01e5
Stlk (Ste20-like kinase)	DRSC22687			3840	3.63e5
Drice (Death related ICE-like caspase)	DRSC16715			8946	4.42e5
CG43980	DRSC11500			5366	3.91e5
CG43980	DRSC11646			7493	4.82e5
CG14647	DRSC12233			10103	3.87e5
CG14647	DRSC22497			3700	3.78e5
Uba1 (Ubiquitin activating enzyme 1)	DRSC07567			9808	3.87e5
ppk23 (pickpocket 23)	DRSC20110			5599	4.16e5
ind (intermediate neuroblasts defective)	DRSC11355			5303	2.09e5
ind (intermediate neuroblasts defective)	DRSC23095			3527	2.36e5
slif (slimfast)	DRSC11635			7862	2.76e5
PIG-Wa (Phosphatidylinositol glycan anchor biosynthesis class W a)	DRSC00728			7886	3.78e5
CG15880	DRSC00474			7310	3.78e5
GCS2beta (Glucosidase 2 beta subunit)	DRSC02960			4983	4.78e5
thoc6	DRSC10528			7019	3.70e5
SPE (Spatzle-Processing Enzyme)	DRSC15135			8466	2.75e5
mRpS11 (mitochondrial ribosomal protein S11)	DRSC15732			6475	4.57e5
CG43658	DRSC20111			5975	5.26e5
CG32554	DRSC22713			3936	3.80e5
CR31824 (pseudo)	DRSC01517			5139	3.73e5
Cyp6d5 (Cytochrome P450 6d5)	DRSC16634			9311	4.14e5
ninaE (neither inactivation nor afterpotential E)	DRSC17014			6871	3.40e5
CG6569	DRSC16067			7701	3.58e5
CG4866	DRSC06899			6556	3.87e5
CG10011	DRSC14174			8435	3.97e5
CG17549	DRSC02625			42368	1.21e6
kek3 (kekkon 3)	DRSC03553			5408	4.13e5
kek3 (kekkon 3)	DRSC22830			3539	3.55e5
CG34025	DRSC08014			4639	3.76e5
CG11109	DRSC11633			9600	4.90e5
CG9673	DRSC20202			5619	5.28e5
CG42241 (retired record)	DRSC04007			5642	4.11e5
CG11837	DRSC14397			8839	5.91e5
CAH4 (Carbonic anhydrase 4)	DRSC22433			4647	4.44e5
alc (alicorn)	DRSC07062			6495	4.46e5
alc (alicorn)	DRSC21464			10400	6.17e5
alc (alicorn)	DRSC23316			4712	3.01e5
Alp9 (Alkaline phosphatase 9)	DRSC10486			6826	4.56e5
Tmem43 (Transmembrane protein 43)	DRSC10964			6346	4.34e5
Pka-R2 (Protein kinase, cAMP-dependent, regulatory subunit type 2)	DRSC07509			7450	5.60e5
CG42580	DRSC20397			4239	3.35e5
Cand1 (Cullin-associated and neddylation-dissociated 1)	DRSC01992			21238	4.55e5
CG32988	DRSC02692			7195	4.74e5
Catsup (Catecholamines up)	DRSC03288			6668	4.71e5
COX1 (retired record)	DRSC21275			5536	3.34e5
CG31909	DRSC22180			9183	6.11e5
Med (Medea)	DRSC16737			5432	2.27e5
Fdx1 (Ferredoxin 1)	DRSC11167			7202	5.42e5
CG15345 (retired record)	DRSC18030			5035	4.66e5
CG15345 (retired record)	DRSC22712			4176	3.82e5
CG2906	DRSC06841			6963	4.58e5
del (deadlock)	DRSC03170			6898	7.23e5
d-cup (davis-cup)	DRSC14846			7056	4.68e5
Tsp74F (Tetraspanin 74F)	DRSC10508			7184	3.88e5
fau	DRSC12816			5631	3.28e5
fau	DRSC12817			6210	3.95e5
fau	DRSC16943			7760	4.71e5
fau	DRSC16944			6143	3.30e5
fau	DRSC16945			4431	3.09e5
fau	DRSC22360			9826	6.29e5
CR11235 (pseudo)	DRSC20480			5354	3.56e5
CG7896	DRSC16335			7324	3.79e5
Ipo9 (Importin 9)	DRSC16813			6863	4.12e5
CG5989	DRSC10565			8135	4.62e5
